Measurements from publication PMC6600469, “Synthesis and Biological Evaluation of NH2-Sulfonyl Oseltamivir Analogues as Influenza Neuraminidase Inhibitors” (Molecules, 2019).

Assay: Metabolic stability in human liver microsomes in vitro
Conditions: human liver microsomes 0.5 mg/mL, 37 °C, 60 min incubation

CCCNCC(O)COc1ccccc1C(=O)CCc1ccccc1 (stereo not shown) [Propafenone, propafenone]
Remaining (T = 60 min): 0.1%
